Test results: patent US7211402
No constants are given. Whether binding was seen depends on the method and setting. Some entries that bind do so weakly or less than the wild type. Blank lines part the entries; values can stand above or below the substance they belong to.

The chains behind the UniProt entries cited, without tags or fusion partners. Where a name states a change or a piece, a line headed by the entry shows the natural chain unless it says otherwise. Residues count along the entry.
UniProt P03372, residues 251-595: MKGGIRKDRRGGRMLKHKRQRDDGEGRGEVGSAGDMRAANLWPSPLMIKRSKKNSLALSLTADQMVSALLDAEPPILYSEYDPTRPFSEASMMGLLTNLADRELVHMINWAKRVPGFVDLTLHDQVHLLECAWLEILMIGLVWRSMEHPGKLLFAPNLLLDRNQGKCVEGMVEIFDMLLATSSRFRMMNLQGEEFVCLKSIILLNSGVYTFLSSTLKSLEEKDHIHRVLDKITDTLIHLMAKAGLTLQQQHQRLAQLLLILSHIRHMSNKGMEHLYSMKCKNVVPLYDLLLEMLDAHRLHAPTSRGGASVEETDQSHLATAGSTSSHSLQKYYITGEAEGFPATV
UniProt P45481, residues 2058-2170: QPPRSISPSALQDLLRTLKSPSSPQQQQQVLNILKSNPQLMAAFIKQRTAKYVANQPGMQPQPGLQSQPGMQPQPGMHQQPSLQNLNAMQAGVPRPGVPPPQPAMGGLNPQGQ
NCoA-1 nuclear receptor interaction domains (aa 635-760), yeast two-hybrid prey, wild type (P70365, residues 635-760): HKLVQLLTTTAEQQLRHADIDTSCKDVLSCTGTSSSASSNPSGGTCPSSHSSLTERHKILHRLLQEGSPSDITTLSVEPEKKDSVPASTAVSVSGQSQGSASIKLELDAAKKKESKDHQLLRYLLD
NCoA-1 smaller region lacking helical domain 3 (yeast two-hybrid prey) (P70365, residues 635-735): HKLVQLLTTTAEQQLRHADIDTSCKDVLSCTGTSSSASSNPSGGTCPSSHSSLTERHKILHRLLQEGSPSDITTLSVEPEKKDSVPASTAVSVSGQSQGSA
UniProt O09000: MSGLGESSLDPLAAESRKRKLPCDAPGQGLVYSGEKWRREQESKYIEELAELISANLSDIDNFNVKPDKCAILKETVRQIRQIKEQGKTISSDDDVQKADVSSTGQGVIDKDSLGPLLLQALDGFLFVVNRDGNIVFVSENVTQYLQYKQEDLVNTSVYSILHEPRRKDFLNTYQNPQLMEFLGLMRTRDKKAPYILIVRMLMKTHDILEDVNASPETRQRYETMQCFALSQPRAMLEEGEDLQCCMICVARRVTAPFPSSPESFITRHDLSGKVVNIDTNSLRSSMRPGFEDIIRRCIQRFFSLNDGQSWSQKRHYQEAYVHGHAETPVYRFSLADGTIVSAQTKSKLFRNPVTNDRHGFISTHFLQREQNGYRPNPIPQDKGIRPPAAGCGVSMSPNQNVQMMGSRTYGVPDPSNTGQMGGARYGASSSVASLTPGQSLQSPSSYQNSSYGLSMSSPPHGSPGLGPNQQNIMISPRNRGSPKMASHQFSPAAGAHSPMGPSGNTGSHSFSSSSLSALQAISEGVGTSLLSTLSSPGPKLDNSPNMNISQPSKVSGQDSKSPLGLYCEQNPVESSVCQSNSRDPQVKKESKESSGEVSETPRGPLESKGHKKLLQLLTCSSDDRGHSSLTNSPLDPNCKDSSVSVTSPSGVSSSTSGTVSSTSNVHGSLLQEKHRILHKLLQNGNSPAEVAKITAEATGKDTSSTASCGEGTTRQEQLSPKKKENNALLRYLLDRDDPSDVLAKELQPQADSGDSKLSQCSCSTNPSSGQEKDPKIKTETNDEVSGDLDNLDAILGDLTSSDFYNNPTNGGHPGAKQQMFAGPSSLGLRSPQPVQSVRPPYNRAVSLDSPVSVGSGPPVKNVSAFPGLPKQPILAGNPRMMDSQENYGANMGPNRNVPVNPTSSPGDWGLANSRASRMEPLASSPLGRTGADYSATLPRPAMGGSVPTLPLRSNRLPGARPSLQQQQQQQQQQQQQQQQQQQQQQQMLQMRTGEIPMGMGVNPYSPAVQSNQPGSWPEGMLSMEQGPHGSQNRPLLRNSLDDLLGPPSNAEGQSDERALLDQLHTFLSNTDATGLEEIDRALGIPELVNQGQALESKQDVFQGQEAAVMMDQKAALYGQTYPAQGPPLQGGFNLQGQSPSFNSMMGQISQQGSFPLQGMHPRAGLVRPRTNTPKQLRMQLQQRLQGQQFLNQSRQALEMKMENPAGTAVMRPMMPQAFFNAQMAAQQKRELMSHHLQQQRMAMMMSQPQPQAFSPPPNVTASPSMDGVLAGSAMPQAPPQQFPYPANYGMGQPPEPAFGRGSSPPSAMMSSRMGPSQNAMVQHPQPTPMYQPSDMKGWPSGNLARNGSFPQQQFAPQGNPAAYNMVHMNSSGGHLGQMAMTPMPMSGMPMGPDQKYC
UniProt Q61026: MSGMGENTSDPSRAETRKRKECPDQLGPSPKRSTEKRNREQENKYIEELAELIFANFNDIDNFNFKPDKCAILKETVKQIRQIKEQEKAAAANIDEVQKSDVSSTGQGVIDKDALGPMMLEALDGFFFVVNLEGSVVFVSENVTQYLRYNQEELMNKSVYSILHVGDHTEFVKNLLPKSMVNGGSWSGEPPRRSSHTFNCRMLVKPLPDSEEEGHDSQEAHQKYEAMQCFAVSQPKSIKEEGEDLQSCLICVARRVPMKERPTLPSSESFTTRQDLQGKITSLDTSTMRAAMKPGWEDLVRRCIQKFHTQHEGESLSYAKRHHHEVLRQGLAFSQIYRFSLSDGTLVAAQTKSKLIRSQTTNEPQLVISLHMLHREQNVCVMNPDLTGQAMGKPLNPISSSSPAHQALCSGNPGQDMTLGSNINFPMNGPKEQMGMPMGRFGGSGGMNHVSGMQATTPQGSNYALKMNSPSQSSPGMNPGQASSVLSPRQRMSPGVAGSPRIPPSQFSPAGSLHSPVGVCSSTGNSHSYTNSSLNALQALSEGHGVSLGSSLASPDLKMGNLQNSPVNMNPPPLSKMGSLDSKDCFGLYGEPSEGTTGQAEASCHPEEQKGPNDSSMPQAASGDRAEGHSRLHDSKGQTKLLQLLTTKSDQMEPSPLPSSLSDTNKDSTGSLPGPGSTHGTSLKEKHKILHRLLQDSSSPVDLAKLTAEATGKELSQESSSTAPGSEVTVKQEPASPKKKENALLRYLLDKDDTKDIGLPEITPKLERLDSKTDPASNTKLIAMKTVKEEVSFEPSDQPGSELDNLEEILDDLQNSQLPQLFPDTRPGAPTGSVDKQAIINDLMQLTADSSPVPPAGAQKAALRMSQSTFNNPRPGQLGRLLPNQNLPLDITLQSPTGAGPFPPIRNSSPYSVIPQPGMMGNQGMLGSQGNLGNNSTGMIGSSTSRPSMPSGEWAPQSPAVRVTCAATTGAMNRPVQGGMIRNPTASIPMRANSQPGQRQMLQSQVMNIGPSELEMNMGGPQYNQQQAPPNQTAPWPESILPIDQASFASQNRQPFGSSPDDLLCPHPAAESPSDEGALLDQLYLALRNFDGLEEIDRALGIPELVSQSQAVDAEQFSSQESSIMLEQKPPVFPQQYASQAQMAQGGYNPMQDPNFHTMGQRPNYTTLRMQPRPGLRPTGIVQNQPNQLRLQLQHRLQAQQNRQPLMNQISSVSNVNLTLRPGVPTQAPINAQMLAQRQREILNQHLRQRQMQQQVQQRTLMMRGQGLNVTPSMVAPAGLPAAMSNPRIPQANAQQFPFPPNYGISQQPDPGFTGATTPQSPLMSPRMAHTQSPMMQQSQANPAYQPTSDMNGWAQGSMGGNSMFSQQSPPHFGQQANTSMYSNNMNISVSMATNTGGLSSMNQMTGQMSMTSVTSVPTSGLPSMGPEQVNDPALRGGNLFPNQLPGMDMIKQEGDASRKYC

Legend:
[1] = molecular target: estrogen receptor ligand binding domain (yeast two-hybrid bait, liganded) (UniProt P03372); test: yeast two-hybrid
[2] = molecular target: estrogen receptor ligand binding domain (yeast two-hybrid bait, liganded) (UniProt P03372); test: yeast two-hybrid with the liganded estrogen receptor LBD (FIG. 3c)
[3] = molecular target: estrogen receptor ligand binding domain (yeast two-hybrid bait, liganded) (UniProt P03372); test: yeast two-hybrid; wild type, against which the LCD2 mutant lost the interaction
[4] = molecular target: CBP(2058-2170) yeast two-hybrid bait (UniProt P45481); test: yeast two-hybrid

binding [1]: binds
Substance: NCoA-1 smaller region lacking helical domain 3 (yeast two-hybrid prey) (from UniProt P70365 635-735)

binding [2]: binds
Substance: p/CIP aa 591-803 (yeast two-hybrid prey) (from UniProt O09000 591-803)

binding [3]: binds
Substance: NCoA-1 nuclear receptor interaction domains (aa 635-760), yeast two-hybrid prey, wild type (from UniProt P70365 635-760)

binding [4]: binds
Substance: NCoA-2 regions comparable to the p/CIP interaction regions (yeast two-hybrid prey) (from UniProt Q61026 2-1462)
